# Reference: the supplement of paper PMC8728848
# This is one part of the list.
# B1: OS9 (Arabidopsis thaliana) (protein)
# chain: MRGSHHHHHHGMASMTGGQQMGRDLYDDDDKSRLQIFPAHLVGTFSRNNREPKYKIEFLPEDSPFHPGDNLESMVMLDKHGNRFLCYLPKEEKATSGWTSSQQNISTVMMETQQLVKLKTPDELLQPLSEKCLFRQEGWWSYEFCHQKYVRQLHVEDENKIVQEFFLGTFDPEATAAFNQTVSDASTDASQRYHSHVYTNGTTCDLTGSPREVEVRFVCAETRAMVTSITELSTCKYALTVQCPTLCKHPLFQLEKPVSHTIHCNAIPVEEDATRNKEEQAVDESPKMIADS
# How the values were obtained:
# Assay in all cases: glycan array binding signal (z-score within array); higher = stronger binding
# Conditions in all cases: glycan notation: IUPAC condensed, linker removed
# Fuc(a1-3)GlcNAc = molecular target: Fuc(a1-3)GlcNAc
# Outline: (§1)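 Arrays were curated from the Consortium for Functional Glycomics database, 3228 in total, and kept only where the protein sequence was available. Binding is expressed as a within-array Z-score. This score was averaged across arrays of the same protein sequence at different concentrations or buffers and across linkers, and negative values can be read as non-binding.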
# [1] = molecular target: Fuc(a1-3)[Gal(b1-4)]Glc6S
# Outline: as §1
# [2] = molecular target: Fuc(a1-3)[Gal(b1-4)]GlcNAc
# Outline: as §1
# [3] = molecular target: Fuc(a1-3)[Gal(b1-4)]GlcNAc(b1-2)Man
# Outline: as §1
# [4] = molecular target: Fuc(a1-3)[Gal(b1-4)]GlcNAc(b1-2)Man(a1-3)[Fuc(a1-3)[Gal(b1-4)]GlcNAc(b1-2)Man(a1-6)]Man(b1-4)GlcNAc(b1-4)GlcNAc
# Outline: as §1
# [5] = molecular target: Fuc(a1-3)[Gal(b1-4)]GlcNAc(b1-2)Man(a1-3)[Fuc(a1-3)[Gal(b1-4)]GlcNAc(b1-2)Man(a1-6)]Man(b1-4)GlcNAc(b1-4)[Fuc(a1-6)]GlcNAc
# Outline: as §1
# [6] = molecular target: Fuc(a1-3)[Gal(b1-4)]GlcNAc(b1-3)Gal(b1-3)[Fuc(a1-4)]GlcNAc
# Outline: as §1
# [7] = molecular target: Fuc(a1-3)[Gal(b1-4)]GlcNAc(b1-3)Gal(b1-4)[Fuc(a1-3)]GlcNAc
# Outline: as §1
# [8] = molecular target: Fuc(a1-3)[Gal(b1-4)]GlcNAc(b1-3)Gal(b1-4)[Fuc(a1-3)]GlcNAc(b1-3)Gal(b1-4)[Fuc(a1-3)]GlcNAc
# Outline: as §1
# [9] = molecular target: Fuc(a1-3)[Gal(b1-4)]GlcNAc(b1-3)GalNAc
# Outline: as §1
# [10] = molecular target: Fuc(a1-3)[Gal(b1-4)]GlcNAc(b1-6)GalNAc
# Outline: as §1
# [11] = molecular target: Fuc(a1-3)[Gal(b1-4)]GlcNAc(b1-6)[Gal(b1-3)GlcNAc(b1-3)]Gal(b1-4)Glc
# Outline: as §1
# [12] = molecular target: Fuc(a1-3)[Gal(b1-4)]GlcNAc6S
# Outline: as §1
# [13] = molecular target: Fuc(a1-3)[Gal3S(b1-4)]Glc
# Outline: as §1
# [14] = molecular target: Fuc(a1-3)[Gal3S(b1-4)]GlcNAc
# Outline: as §1
# [15] = molecular target: Fuc(a1-3)[Gal3S(b1-4)]GlcNAc6S
# Outline: as §1
# [16] = molecular target: Fuc(a1-3)[GalNAc(b1-4)]GlcNAc
# Outline: as §1
# [17] = molecular target: Fuc(a1-3)[GalNAc(b1-4)]GlcNAc6S
# Outline: as §1
# Fuc(a1-4)GlcNAc = molecular target: Fuc(a1-4)GlcNAc
# Outline: as §1
# Fuc(b1-3)GlcNAc = molecular target: Fuc(b1-3)GlcNAc
# Outline: as §1
# Gal(a1-2)Gal = molecular target: Gal(a1-2)Gal
# Outline: as §1
# Gal(a1-3)Gal = molecular target: Gal(a1-3)Gal
# Outline: as §1
# Gal(a1-3)Gal(b1-3)GlcNAc = molecular target: Gal(a1-3)Gal(b1-3)GlcNAc
# Outline: as §1
# [18] = molecular target: Gal(a1-3)Gal(b1-3)GlcNAc(b1-2)Man
# Outline: as §1
# [19] = molecular target: Gal(a1-3)Gal(b1-3)GlcNAc(b1-2)Man(a1-3)[Gal(a1-3)Gal(b1-3)GlcNAc(b1-2)Man(a1-6)]Man(b1-4)GlcNAc(b1-4)GlcNAc
# Outline: as §1
# [20] = molecular target: Gal(a1-3)Gal(b1-3)GlcNAc(b1-3)GalNAc
# Outline: as §1
# [21] = molecular target: Gal(a1-3)Gal(b1-3)GlcNAc(b1-6)GalNAc
# Outline: as §1
# [22] = molecular target: Gal(a1-3)Gal(b1-3)[Fuc(a1-4)]GlcNAc(b1-2)Man(a1-3)[Gal(a1-3)Gal(b1-3)[Fuc(a1-4)]GlcNAc(b1-2)Man(a1-6)]Man(b1-4)GlcNAc(b1-4)GlcNAc
# Outline: as §1
# Gal(a1-3)Gal(b1-4)Glc = molecular target: Gal(a1-3)Gal(b1-4)Glc
# Outline: as §1
# Gal(a1-3)Gal(b1-4)GlcNAc = molecular target: Gal(a1-3)Gal(b1-4)GlcNAc
# Outline: as §1
binder,measurement,setting,value
B1,glycan array binding signal (z-score),Fuc(a1-3)GlcNAc,0.816
same,glycan array binding signal (z-score),[1],-0.704
same,glycan array binding signal (z-score),[2],-0.439
same,glycan array binding signal (z-score),[3],1.56
same,glycan array binding signal (z-score),[4],0.373
same,glycan array binding signal (z-score),[5],-1.08
same,glycan array binding signal (z-score),[6],-0.792
same,glycan array binding signal (z-score),[7],0.209
same,glycan array binding signal (z-score),[8],-0.881
same,glycan array binding signal (z-score),[9],0.383
same,glycan array binding signal (z-score),[10],-1.02
same,glycan array binding signal (z-score),[11],0.901
same,glycan array binding signal (z-score),[12],3.45
same,glycan array binding signal (z-score),[13],-0.948
same,glycan array binding signal (z-score),[14],1.51
same,glycan array binding signal (z-score),[15],-0.706
same,glycan array binding signal (z-score),[16],0.056
same,glycan array binding signal (z-score),[17],-0.395
same,glycan array binding signal (z-score),Fuc(a1-4)GlcNAc,-0.533
same,glycan array binding signal (z-score),Fuc(b1-3)GlcNAc,0.055
same,glycan array binding signal (z-score),Gal(a1-2)Gal,1.15
same,glycan array binding signal (z-score),Gal(a1-3)Gal,-0.357
same,glycan array binding signal (z-score),Gal(a1-3)Gal(b1-3)GlcNAc,-0.937
same,glycan array binding signal (z-score),[18],-0.727
same,glycan array binding signal (z-score),[19],2.24
same,glycan array binding signal (z-score),[20],0.148
same,glycan array binding signal (z-score),[21],-0.704
same,glycan array binding signal (z-score),[22],-0.059
same,glycan array binding signal (z-score),Gal(a1-3)Gal(b1-4)Glc,0.213
same,glycan array binding signal (z-score),Gal(a1-3)Gal(b1-4)GlcNAc,-0.724

# Some of the entries so far, tab-delimited.
binder	measurement	setting	value
B1	glycan array binding signal (z-score)	Gal(a1-3)Gal	-0.357
same	glycan array binding signal (z-score)	[21]	-0.704
